Results are given in words; binding and its absence hold for the method and conditions named. In cells and extracts the contact can be indirect. Some entries that bind do so weakly or less than the wild type.
What was measured:
[1] = molecular target: Argonaute 2 (AGO2) (human (endogenous in hSAECs)) (UniProt Q9UKV8); experiment: co-IP
[2] = molecular target: Argonaute 2 (AGO2) (human (endogenous in hSAECs)) (UniProt Q9UKV8); experiment: proximity ligation

The chains behind the UniProt entries cited, without tags or fusion partners.
UniProt Q9UKV8: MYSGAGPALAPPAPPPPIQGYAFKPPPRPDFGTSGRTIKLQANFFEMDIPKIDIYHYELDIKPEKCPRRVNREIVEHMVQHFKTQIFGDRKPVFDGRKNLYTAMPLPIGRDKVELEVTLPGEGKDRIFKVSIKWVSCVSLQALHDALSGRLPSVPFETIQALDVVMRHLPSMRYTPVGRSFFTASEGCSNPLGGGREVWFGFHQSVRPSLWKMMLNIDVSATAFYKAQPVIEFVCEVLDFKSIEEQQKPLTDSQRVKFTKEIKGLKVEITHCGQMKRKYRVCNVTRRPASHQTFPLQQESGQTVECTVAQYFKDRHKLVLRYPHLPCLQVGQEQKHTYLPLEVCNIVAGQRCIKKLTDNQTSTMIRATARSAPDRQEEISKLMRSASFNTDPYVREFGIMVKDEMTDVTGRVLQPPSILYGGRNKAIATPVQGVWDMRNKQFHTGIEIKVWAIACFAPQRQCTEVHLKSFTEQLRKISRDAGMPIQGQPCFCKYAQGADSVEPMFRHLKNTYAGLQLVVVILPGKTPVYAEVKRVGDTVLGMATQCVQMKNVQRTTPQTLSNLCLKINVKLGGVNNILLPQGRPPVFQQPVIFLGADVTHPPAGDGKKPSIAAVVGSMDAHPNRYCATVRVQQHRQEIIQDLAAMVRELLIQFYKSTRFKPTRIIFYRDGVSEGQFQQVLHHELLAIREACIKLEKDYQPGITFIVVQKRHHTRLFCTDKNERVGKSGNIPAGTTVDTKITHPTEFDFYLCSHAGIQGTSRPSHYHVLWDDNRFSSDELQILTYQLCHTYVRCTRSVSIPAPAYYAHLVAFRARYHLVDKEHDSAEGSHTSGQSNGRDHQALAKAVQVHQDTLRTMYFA
UniProt Q8NDV7: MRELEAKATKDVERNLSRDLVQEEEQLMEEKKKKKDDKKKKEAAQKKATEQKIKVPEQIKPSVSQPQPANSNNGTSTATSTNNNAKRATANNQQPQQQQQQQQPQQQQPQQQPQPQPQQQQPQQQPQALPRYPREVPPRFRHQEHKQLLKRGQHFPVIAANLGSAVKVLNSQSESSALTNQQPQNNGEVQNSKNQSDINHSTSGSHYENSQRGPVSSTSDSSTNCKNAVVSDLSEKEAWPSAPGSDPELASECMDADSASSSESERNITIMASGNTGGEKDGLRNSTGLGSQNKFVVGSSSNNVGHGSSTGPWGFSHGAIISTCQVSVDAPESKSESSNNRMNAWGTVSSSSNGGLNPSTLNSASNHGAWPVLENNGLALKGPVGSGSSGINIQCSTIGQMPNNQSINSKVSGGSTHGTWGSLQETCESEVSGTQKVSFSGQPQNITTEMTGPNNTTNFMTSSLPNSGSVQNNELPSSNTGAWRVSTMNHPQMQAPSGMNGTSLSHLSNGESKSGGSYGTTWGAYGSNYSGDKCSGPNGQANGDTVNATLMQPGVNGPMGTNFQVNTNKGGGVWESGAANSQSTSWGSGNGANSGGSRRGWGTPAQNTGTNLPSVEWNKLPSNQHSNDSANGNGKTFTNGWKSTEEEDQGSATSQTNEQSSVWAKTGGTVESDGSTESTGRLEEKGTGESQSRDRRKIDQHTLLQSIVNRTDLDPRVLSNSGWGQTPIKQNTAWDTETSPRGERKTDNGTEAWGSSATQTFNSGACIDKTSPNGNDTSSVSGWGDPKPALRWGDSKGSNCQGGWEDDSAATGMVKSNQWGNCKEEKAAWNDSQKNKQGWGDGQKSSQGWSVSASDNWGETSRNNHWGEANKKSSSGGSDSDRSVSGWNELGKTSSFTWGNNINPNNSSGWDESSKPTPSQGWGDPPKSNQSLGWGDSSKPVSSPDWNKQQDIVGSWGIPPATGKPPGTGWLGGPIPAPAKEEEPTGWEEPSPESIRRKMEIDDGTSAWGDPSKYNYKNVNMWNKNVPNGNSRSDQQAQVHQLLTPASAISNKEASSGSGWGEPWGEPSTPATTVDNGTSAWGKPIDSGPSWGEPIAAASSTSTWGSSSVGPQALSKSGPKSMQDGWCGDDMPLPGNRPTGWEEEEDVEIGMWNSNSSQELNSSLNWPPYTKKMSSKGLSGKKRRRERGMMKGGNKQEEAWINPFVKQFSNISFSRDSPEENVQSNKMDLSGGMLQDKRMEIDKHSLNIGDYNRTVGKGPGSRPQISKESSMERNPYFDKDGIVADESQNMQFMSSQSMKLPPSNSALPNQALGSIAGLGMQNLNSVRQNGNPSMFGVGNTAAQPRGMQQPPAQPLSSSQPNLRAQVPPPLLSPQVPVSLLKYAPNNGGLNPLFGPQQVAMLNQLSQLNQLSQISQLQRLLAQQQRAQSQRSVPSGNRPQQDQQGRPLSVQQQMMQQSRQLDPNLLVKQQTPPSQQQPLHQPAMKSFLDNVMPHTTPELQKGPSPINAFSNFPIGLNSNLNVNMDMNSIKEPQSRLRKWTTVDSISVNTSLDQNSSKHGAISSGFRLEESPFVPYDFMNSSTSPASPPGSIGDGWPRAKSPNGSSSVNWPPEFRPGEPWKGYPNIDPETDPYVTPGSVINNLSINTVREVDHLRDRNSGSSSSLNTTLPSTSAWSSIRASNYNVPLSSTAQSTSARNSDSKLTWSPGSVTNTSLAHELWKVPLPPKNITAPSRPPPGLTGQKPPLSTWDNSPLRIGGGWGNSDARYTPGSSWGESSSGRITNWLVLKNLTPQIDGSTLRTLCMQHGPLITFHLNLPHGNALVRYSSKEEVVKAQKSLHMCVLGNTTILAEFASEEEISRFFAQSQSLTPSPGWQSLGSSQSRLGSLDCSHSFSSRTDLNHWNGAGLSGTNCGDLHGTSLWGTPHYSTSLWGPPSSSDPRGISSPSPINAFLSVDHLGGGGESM

binding [1]: binds | binding [2]: binds
Substance: TNRC6A (GW182) (from UniProt Q8NDV7 1-1962)
